Measurements published in PMC4838387, “PolDIP2 interacts with human PrimPol and enhances its DNA polymerase activities”.
Construct, isoform or probe ends are uncertain for at least one entry. At least one verdict rests on a figure or table, not on a statement of the authors. Protein sequences can lack the tags named with them.

Biological target: T1, PrimPol24-354 (AEP catalytic domain) (human) (UniProt Q96LW4)
T1 sequence (looked up): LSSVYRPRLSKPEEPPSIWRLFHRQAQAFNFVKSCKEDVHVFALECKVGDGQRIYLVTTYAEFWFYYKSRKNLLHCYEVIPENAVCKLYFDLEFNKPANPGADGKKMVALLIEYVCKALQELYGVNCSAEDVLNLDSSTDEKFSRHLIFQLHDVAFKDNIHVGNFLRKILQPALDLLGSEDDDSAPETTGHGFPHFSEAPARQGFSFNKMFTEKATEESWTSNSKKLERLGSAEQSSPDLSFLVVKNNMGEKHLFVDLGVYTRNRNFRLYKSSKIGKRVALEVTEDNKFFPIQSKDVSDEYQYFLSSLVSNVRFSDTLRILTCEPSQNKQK
Assay: EMSA
Conditions: 200 nM PrimPol24-354 with PolDIP2 51-368: DNA binding not stimulated, substrate taken from Methods; EMSA: 10 mM Bis-Tris-propane-HCl pH 7.0, 10 mM MgCl2, 100 uM DTT, 20 nM DNA; 5% native PAGE, 0.5x TBE; binding temperature not stated; recombinant protein; residues 24-354; label: 5'-HEX on primer, 3'-biotin on template

TGTCGTCTGTTCGGTCGTTC / ACCGCGAACTTGAATTCTAGTTCAGTCTAAATGCTCTCAAGCACTGAGCAATTCACAACATATGGCTTTCGATTACCGAACGACCGAACAGACGACA [20/97-mer primer/template (HP-20 / ND-97)]
binding result: binds
